In the supplement of paper PMC10849652:
The list shows a part of the results.

Chains of the proteins cited; added tags and fusions are not shown. Lines headed by an entry give the natural chain unless they say otherwise; changes in a name come on top.
UniProt Q9HB09: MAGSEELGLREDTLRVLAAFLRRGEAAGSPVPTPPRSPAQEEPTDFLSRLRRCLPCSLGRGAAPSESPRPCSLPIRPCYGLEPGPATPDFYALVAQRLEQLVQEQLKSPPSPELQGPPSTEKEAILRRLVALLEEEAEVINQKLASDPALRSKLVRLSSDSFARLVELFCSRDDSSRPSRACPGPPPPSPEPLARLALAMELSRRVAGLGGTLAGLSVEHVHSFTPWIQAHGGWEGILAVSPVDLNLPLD
UniProt O95429: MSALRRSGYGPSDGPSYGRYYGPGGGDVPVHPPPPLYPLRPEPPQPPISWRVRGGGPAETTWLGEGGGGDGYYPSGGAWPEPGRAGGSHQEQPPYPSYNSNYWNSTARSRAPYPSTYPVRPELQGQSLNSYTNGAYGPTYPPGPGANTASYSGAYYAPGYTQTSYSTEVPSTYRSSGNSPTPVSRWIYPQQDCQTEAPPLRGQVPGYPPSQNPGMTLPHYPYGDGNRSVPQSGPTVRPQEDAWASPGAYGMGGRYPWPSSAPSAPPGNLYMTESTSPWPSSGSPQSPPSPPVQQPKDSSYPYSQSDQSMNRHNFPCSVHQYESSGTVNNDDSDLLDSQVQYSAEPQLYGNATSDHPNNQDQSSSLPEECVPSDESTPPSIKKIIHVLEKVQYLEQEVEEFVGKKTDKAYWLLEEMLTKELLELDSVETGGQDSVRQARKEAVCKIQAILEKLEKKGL
UniProt Q86WA6: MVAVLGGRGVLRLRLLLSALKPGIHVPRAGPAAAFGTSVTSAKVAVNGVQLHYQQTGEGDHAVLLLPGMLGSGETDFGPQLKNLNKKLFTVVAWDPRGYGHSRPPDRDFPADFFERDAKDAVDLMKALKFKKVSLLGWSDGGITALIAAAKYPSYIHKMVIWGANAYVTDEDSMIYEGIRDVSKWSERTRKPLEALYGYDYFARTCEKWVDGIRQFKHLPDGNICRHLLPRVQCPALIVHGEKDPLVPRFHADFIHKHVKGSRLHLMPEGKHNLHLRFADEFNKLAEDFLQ
UniProt Q6QNY1: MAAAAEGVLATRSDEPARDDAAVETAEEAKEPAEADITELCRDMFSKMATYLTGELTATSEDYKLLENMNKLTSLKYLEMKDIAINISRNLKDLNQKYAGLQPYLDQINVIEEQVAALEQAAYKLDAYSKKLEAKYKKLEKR
UniProt Q9UL45: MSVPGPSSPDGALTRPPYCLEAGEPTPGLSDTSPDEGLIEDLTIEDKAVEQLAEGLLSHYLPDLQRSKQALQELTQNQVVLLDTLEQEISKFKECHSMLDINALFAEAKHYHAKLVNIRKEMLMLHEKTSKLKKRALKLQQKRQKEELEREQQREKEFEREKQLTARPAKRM
UniProt Q6QNY0: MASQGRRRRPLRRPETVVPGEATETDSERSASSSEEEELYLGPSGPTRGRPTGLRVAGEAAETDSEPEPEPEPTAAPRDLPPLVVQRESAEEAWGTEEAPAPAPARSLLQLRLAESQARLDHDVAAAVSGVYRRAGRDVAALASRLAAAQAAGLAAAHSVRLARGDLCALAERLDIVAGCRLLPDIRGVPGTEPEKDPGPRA
UniProt Q12981: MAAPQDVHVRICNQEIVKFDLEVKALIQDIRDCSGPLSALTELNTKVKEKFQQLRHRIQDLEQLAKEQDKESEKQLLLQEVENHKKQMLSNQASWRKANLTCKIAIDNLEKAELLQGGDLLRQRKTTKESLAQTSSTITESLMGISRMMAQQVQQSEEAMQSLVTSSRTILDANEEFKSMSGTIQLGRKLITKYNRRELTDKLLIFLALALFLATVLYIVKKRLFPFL
UniProt Q6W2J9: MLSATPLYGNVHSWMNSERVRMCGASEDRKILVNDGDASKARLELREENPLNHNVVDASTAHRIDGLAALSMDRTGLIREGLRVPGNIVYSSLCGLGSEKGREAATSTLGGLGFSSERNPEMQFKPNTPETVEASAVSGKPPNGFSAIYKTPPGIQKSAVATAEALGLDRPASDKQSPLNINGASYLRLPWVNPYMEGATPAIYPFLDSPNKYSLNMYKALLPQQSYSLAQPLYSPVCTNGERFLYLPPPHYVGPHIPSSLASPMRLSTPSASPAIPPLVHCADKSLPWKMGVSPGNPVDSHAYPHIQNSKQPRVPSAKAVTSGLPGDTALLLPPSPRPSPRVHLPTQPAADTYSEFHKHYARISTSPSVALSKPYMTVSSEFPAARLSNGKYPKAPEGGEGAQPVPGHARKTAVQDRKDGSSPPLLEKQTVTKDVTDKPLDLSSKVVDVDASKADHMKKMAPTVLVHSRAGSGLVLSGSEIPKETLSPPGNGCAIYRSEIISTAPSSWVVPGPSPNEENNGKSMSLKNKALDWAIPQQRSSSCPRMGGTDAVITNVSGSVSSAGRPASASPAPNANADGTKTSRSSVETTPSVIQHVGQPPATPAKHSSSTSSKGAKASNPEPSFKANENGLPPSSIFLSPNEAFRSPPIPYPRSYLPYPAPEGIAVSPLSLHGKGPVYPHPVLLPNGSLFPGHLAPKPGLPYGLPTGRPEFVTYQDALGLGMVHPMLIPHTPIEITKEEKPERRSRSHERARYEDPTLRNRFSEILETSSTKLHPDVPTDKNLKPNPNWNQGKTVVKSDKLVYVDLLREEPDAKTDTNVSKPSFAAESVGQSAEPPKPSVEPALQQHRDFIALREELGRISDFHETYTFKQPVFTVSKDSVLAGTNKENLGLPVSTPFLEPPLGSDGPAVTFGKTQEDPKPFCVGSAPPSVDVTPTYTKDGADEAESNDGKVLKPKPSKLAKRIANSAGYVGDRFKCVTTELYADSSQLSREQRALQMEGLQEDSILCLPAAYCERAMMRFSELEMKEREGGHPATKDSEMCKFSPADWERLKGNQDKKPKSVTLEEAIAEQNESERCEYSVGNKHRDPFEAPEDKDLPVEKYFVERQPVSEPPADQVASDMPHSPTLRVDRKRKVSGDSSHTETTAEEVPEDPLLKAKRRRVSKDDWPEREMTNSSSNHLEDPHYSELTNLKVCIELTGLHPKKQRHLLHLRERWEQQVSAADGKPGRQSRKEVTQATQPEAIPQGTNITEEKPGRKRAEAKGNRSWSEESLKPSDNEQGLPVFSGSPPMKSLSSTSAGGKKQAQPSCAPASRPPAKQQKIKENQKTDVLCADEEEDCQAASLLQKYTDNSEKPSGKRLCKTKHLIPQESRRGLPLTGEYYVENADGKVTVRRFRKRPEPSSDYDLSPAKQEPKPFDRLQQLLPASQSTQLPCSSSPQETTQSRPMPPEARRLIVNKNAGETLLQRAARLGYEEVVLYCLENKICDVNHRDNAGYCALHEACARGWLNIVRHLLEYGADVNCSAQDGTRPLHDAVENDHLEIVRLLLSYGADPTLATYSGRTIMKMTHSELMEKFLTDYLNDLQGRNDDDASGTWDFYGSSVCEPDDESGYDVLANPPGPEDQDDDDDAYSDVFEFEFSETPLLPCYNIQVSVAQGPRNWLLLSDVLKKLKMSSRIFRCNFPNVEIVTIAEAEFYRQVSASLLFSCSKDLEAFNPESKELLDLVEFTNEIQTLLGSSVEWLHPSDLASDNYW
UniProt Q99728: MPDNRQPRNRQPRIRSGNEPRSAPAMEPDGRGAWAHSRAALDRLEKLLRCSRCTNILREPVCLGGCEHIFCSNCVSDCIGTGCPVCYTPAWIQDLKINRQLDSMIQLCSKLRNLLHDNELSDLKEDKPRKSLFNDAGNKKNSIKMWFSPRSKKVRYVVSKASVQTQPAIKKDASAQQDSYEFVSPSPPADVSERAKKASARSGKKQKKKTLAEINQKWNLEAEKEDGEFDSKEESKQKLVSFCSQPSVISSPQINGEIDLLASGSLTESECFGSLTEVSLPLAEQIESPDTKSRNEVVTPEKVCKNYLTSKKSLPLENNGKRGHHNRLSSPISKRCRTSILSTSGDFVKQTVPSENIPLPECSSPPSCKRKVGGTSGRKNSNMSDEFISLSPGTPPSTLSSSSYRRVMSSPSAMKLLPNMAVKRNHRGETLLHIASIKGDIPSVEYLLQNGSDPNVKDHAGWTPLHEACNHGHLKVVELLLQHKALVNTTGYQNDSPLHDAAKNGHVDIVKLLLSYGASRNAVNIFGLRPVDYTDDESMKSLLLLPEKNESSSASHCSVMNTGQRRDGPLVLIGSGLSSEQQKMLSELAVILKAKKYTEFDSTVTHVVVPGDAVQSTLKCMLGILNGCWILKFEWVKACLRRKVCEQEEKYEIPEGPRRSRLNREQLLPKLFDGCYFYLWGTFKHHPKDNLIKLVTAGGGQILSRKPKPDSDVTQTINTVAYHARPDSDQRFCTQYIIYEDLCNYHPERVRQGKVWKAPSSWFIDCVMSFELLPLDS
UniProt Q9Y276: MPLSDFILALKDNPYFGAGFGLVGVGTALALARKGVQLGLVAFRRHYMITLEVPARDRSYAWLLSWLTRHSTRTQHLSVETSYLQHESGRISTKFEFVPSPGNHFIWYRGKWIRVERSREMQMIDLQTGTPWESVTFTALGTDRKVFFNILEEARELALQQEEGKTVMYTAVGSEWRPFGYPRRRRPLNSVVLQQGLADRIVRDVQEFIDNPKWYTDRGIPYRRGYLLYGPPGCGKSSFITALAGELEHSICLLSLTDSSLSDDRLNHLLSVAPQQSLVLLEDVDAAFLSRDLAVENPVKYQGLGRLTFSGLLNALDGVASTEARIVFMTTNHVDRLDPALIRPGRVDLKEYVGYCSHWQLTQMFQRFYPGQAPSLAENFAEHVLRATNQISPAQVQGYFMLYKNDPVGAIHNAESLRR
UniProt Q8TDH9: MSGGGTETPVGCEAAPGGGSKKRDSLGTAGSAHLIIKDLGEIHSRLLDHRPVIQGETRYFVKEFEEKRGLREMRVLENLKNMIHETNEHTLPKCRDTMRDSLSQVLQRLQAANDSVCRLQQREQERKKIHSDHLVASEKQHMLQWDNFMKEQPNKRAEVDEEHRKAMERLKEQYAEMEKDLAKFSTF
UniProt P11274: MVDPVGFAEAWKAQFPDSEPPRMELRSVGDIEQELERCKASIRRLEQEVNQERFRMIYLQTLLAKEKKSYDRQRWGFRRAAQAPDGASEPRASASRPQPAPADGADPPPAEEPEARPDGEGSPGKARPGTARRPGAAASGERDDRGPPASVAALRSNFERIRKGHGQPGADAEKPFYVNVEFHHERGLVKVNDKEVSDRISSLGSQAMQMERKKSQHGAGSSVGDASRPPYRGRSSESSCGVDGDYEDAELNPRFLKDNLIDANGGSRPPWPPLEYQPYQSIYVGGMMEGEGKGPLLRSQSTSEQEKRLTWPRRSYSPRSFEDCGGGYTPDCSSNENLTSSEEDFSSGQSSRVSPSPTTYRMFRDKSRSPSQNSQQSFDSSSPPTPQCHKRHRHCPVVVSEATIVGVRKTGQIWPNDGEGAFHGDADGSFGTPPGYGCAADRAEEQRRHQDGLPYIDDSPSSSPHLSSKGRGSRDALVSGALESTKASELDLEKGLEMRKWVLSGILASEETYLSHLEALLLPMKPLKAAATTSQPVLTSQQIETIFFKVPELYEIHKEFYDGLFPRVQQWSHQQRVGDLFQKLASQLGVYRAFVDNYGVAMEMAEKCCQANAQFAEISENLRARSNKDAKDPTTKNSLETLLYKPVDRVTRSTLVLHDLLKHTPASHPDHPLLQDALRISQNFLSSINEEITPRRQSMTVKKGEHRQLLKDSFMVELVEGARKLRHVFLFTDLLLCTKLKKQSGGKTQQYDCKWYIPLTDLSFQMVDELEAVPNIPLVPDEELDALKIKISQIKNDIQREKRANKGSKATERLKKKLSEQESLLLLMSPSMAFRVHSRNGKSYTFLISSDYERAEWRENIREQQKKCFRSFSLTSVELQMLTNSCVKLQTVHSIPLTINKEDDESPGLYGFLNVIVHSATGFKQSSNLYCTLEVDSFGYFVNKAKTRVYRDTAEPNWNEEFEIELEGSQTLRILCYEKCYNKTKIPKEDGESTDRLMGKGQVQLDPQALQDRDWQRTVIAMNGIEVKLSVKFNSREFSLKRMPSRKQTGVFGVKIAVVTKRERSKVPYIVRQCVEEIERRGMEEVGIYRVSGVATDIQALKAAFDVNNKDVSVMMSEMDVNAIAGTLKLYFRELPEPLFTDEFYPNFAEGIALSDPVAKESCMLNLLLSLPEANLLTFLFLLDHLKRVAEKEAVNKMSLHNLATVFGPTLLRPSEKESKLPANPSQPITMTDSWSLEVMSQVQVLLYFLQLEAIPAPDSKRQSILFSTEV
UniProt Q8WUW1: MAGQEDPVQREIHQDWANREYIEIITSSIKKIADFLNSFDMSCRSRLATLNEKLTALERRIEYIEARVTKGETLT
UniProt Q99933: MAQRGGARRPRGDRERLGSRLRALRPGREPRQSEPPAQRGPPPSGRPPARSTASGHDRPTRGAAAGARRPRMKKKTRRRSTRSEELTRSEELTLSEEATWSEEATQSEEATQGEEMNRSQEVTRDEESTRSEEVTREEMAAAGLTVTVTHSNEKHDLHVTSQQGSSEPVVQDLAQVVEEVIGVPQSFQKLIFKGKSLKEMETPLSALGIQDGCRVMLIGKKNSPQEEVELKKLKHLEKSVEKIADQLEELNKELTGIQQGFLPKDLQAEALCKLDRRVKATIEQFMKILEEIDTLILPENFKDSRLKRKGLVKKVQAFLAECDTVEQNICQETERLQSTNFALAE

compound: C1=CC=C(C=C1)[C@H](COC2=CC3=C(C=C2)NC(=O)N3)NC(=O)C4=CC=CN(C4=O)CC5=CC(=C(C=C5)F)F; assay: log2 fold change, soluble protein after heating vs DMSO (PISA); higher = thermal stabilisation; K562 lysate, 10 uM; active = over 0.2 and 3.5 SD of the protein, either way, in both replicates (recomputed)
Procedure, shortened: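 A 30 min treatment with 10 μM compound was applied to crude K562 extract at 1 mg/mL protein in PBS pH 7.4 with 1 mM MgCl2. Heating for 3 min spanned 48°C-58°C, after which aliquots were pooled, adjusted to 0.5% NP-40 at 4°C and spun at 21,000xg for 90 min. TMTpro 16plex LC-MS/MS of the supernatant, with channel sums equalised, gave values recorded as log-two fold change in thermal stability against solvent controls, from duplicates.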

| Target | log2 fold change |
| --- | --- |
| BCL2L12 (UniProt Q9HB09) | inactive: 0.162 |
| BAG4 (UniProt O95429) | inactive: 0.059 |
| BPHL (UniProt Q86WA6) | inactive: 0.284 |
| BLOC1S2 (UniProt Q6QNY1) | inactive: 0.147 |
| BCL9L (UniProt Q86UU0) | inactive: -0.108 |
| BLOC1S6 (UniProt Q9UL45) | inactive: -0.078 |
| BROX (UniProt Q5VW32) | inactive: -0.007 |
| BAIAP2L1 (UniProt Q9UHR4) | inactive: 0.05 |
| BLOC1S3 (UniProt Q6QNY0) | inactive: 0.021 |
| BNIP1 (UniProt Q12981) | inactive: 0.021 |
| BPNT1 (UniProt A6NF51) | inactive: -0.005 |
| BCOR (UniProt Q6W2J9) | inactive: 0.031 |
| BPTF (UniProt Q12830) | inactive: 0.034 |
| BAG2 (UniProt O95816) | inactive: 0.013 |
| BTF3L4 (UniProt Q96K17) | inactive: 0.038 |
| BARD1 (UniProt Q99728) | inactive: 0.062 |
| BCS1L (UniProt Q9Y276) | inactive: -0.071 |
| BRD4 (UniProt O60885) | inactive: 0.022 |
| BICD2 isoform 2 (UniProt Q8TD16) | inactive: 0.006 |
| BLOC1S5 (UniProt Q8TDH9) | inactive: 0.002 |
| BCR (UniProt P11274) | inactive: -0.03 |
| BSDC1 (UniProt Q9NW68) | inactive: 0.155 |
| BRK1 isoform 2 (UniProt Q8WUW1) | inactive: 0 |
| BAG1 (UniProt Q99933) | inactive: 0.016 |

Reformatted as tab-separated lines: part of the list above
Target	log2 fold change
BAG4 (UniProt O95429)	inactive: 0.059
BCL9L (UniProt Q86UU0)	inactive: -0.108
BPNT1 (UniProt A6NF51)	inactive: -0.005
BPTF (UniProt Q12830)	inactive: 0.034
BTF3L4 (UniProt Q96K17)	inactive: 0.038
